# Measured values as given in PubChem BioAssay AID624297 (National Center for Advancing Translational Sciences (NCATS), 2012).
# Hit rate of the full screen: of about 340,000 compounds, about 6,200 (1.8%) were called active. The shares of active, inactive and inconclusive entries below differ from those in the screen. Calls follow the shape of the dose curve; as a rule, active = well fitted activation curve with a large enough effect; inconclusive = small, poorly fitted or top-dose-only effect; inactive = no such curve, though single readings can be large or run the other way. Potencies of inconclusive entries are doubtful fits and often do not repeat.
# Assay: A quantitative high throughput screen for small molecules that induce DNA re-replication in SW480 colon adenocarcinoma cells. Also: nearly all actives have a fitted effect of over 55% in size.
# Settings: Hoechst DNA content imaging, 48 h; series mostly up to 46.1 µM
# How it was run: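 250 cells/well; 23 nL cpd via pin tool; 48 hr, 37 C, 5% CO2; Hoechst 40 min; imager read of total nuclear intensity, ex 405/em 500-530 nm.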
# Potency is read from the fitted curve at half-maximal effect.
row,SMILES,Potency
1,CC(C)C(NC(=O)c1c(F)cccc1F)C(=O)N1CCN(S(=O)(=O)c2ccc(F)cc2)CC1 (stereo unspecified),inactive
2,CN(C)CCNS(=O)(=O)c1ccc(N2CCN(c3ccc(F)cc3)CC2)c([N+](=O)[O-])c1,"inconclusive: 20.6 µM [activator, single point]"
3,CCOC(=O)c1ccc(Nc2nnc(C(C)(C)C)c(=O)[nH]2)cc1,"inconclusive: 16.4 µM [activator, single point]"
4,Cc1cc(SCC(=O)Nc2ccc(O)cc2)n2ncc(-c3ccccc3)c2n1,"inconclusive: 18.4 µM [activator, single point]"
5,C=CCSc1nc(-c2ccc3c(c2)OCO3)cc(C(F)(F)F)c1C#N,active: 7.31 µM
6,Cc1nnc(SC(C(=O)Nc2ccc(Cl)c([N+](=O)[O-])c2)c2ccccc2)[nH]c1=O (stereo unspecified),inactive
7,CN(C(=O)CN1C(=O)/C(=C/c2ccc(F)cc2)SC1=S)C1CCS(=O)(=O)C1 (stereo unspecified),"inconclusive: 2.31 µM [activator, partial curve, poor fit]"
8,O=C(CCNC(=O)c1ccc([N+](=O)[O-])cc1)NCCCN1CCCC1=O,"inconclusive: 29.1 µM [activator, single point]"
9,NNC(=S)Nc1cccc(Cl)c1,"inconclusive: 29.1 µM [activator, partial curve, poor fit]"
10,NS(=O)(=O)c1ccc(CCNC(=O)c2ccc3nc4ccc(Cl)cc4c(=O)n3c2)cc1,"inconclusive: 29.1 µM [activator, single point]"
11,CCn1c(NC(C)=O)nc2ccccc21,inactive
12,O=C(Nc1ccncc1)Nc1ccncc1,inactive
13,O=c1c2ccccc2sn1-c1nccs1,"inconclusive: 16.4 µM [activator, single point]"
14,CCCCCCCNC(=O)C1(CC2CC(c3ccc(Cl)cc3)=NO2)CCN(C(=O)c2cc(OCC)c(OCC)c(OCC)c2)CC1 (stereo unspecified),"inconclusive: 6.51 µM [activator, partial curve, poor fit]"
15,CCC1CCCCN1C(=O)CSc1nc2ccsc2c(=O)n1Cc1ccccc1 (stereo unspecified),inactive
16,O=S(=O)([N-]c1nc2ccccc2nc1-n1cc[n+](Cc2ccccc2)c1)c1ccccc1,"inconclusive: 18.4 µM [activator, single point]"
17,Cc1ccc(S(=O)(=O)Nc2ccccc2N=Cc2c(F)c(F)c(F)c(F)c2F)cc1,"inconclusive: 29.1 µM [activator, single point]"
18,CCN(CC)c1nc(-c2ccc(C(=O)NN)cc2)nc(-c2ccc(C(=O)NN)cc2)n1,inactive
19,Nc1ncc(-c2ccccc2)c(-c2ccc(O)cc2O)n1,"inconclusive: 20.6 µM [activator, single point]"
20,COc1ccc(C)cc1NS(=O)(=O)c1ccccc1,inactive
21,O=C(NC(=S)NC1C2CC3CC(C2)CC1C3)c1ccccc1 (stereo unspecified),inactive
22,CCOC(=O)c1ccc(-c2c(-c3cc(OC)c(OC)c(OC)c3)noc2C)cc1F,active: 2.91 µM
23,COc1ccc(NC(C)C(=O)N/N=C/c2ccccc2OCc2ccc(Br)cc2)cc1 (stereo unspecified),"inconclusive: 35.5 µM [activator, single point]"

# Three compounds already listed, arranged by molar mass, descending.
row,SMILES,Potency
14,CCCCCCCNC(=O)C1(CC2CC(c3ccc(Cl)cc3)=NO2)CCN(C(=O)c2cc(OCC)c(OCC)c(OCC)c2)CC1 (stereo unspecified),"inconclusive: 6.51 µM [activator, partial curve, poor fit]"
16,O=S(=O)([N-]c1nc2ccccc2nc1-n1cc[n+](Cc2ccccc2)c1)c1ccccc1,"inconclusive: 18.4 µM [activator, single point]"
22,CCOC(=O)c1ccc(-c2c(-c3cc(OC)c(OC)c(OC)c3)noc2C)cc1F,active: 2.91 µM

# Carrying on:

row,SMILES,Potency
1,O=[N+]([O-])c1ccc(-c2ccc(/C=N/n3cnnc3)o2)c(Br)c1,"inconclusive: 6.51 µM [activator, partial curve, poor fit]"
2,COc1ccc(N=c2oc3cc(O)ccc3cc2C(=O)NCC2CCCO2)cc1 (stereo unspecified),inactive
3,NNc1nc2c(F)cccc2s1,"inconclusive: 9.2 µM [activator, partial curve, poor fit]"
4,COc1cccc(C(=O)OCC(=O)N2CCc3ccccc3C2)c1OC,inactive
5,O=C(NCCN1CCOCC1)C1(C(F)(F)F)C/C(=C\Cc2ccccc2)CCCO1 (stereo unspecified),"inconclusive: 6.51 µM [activator, single point]"
6,CCn1c(=S)[nH]c2sc3c(c2c1=O)CCCCC3,"inconclusive: 5.8 µM [activator, full curve, poor fit]"
7,O=C(N/N=C/c1cn(-c2ccccc2)nc1-c1cccnc1)c1ccc(F)cc1,inactive
8,CCCCNc1c2c3c(cccc3n(C)c1=O)C(=O)c1ccccc1-2,active: 5.8 µM
9,Cc1ccc(C(=O)Nc2ccccc2N2CCCCC2)cc1[N+](=O)[O-],"inconclusive: 20.6 µM [activator, partial curve, poor fit]"
10,COc1cc(/C=C2\SC(=N)N(c3ccc4c(c3)OCO4)C2=O)cc(OC)c1O,"inconclusive: 20.6 µM [activator, single point]"
11,Cc1nnc(SCC(=O)NC(C)(C)C)n1NCc1cccc(Br)c1,inactive
12,Cc1cc(Br)ccc1NC(=O)C1C2CCC(O2)C1C(=O)O (stereo unspecified),inactive
13,COc1ccc(C(=O)/C=C/c2cccnc2)c(OC)c1,"inconclusive: 16.4 µM [activator, partial curve, poor fit]"
14,CC(C)NC(=O)Nc1cccc2c1O[C@H](CN(C)C(=O)NC1CCCCC1)[C@H](C)CN([C@H](C)CO)C2=O,inactive
15,CSc1nc(=S)cc(C)[nH]1,"inconclusive: 0.58 µM [activator, partial curve, poor fit]"
16,O=C(N/N=C/c1cn(-c2ccccc2)nc1-c1cccs1)c1ccncc1,inactive
17,COCc1[nH]nc2c1C(c1sccc1C)C(C#N)=C(N)O2 (stereo unspecified),inactive
18,CCc1ccc(S(=O)(=O)N2CC(=O)Nc3ccccc32)cc1,"inconclusive: 6.51 µM [activator, single point]"
19,c1ccc2c(c1)CC/C2=N/Nc1nc2ccccc2[nH]1,"inconclusive: 16.4 µM [activator, single point]"
20,CN(C)CCOc1ncnc2c1oc1ccccc12,inactive
21,COCCc1nnc(NC(=O)C23CC4CC(CC(C4)C2)C3)s1,"inconclusive: 0.731 µM [activator, partial curve, poor fit]"
22,CC(C)Cn1cnc2c1c(=O)n(CC(=O)NC(=O)NC(C)(C)C)c(=O)n2Cc1ccccc1,"inconclusive: 32.6 µM [activator, partial curve, poor fit]"
23,CCOc1ccc(CCNC(=O)CCC(=O)N2CCOc3ccc(C)cc32)cc1OCC,inactive
